For at least one compound, name, drawing or mass did not settle the structure.
System: LPS-induced sepsis in rats
Test: LPS-induced rat sepsis model
Assay type: in vivo, SD rat
Conditions: SMI0 150 mg/kg ig or celecoxib 5 mg/kg ig 30 min before LPS 5 mg/kg ip; 4 h, 5 h, 6 h; vs model group
Procedure: Rats: An SD rat sepsis model was constructed through single intraperitoneal injection of LPS (5 mg/kg). 30 min before LPS administration, rats in the model group were administered with NS (0.5 mL/kg, i.g.), rats in the positive control group were administered with celecoxib (5 mg/kg, i.g.), and rats in the CYP2E1 inhibition group were administered with the compound SMI0 (150 mg/kg, i.g.). After LPS administration, a body temperature of each rat was measured and recorded every hour until 9 h (control group, n=8 rats; model group, n=10 rats; celecoxib group, n=10 rats; and SMI0 compound group, n=10 rats).

Cc1ccc(-c2cc(C(F)(F)F)nn2-c2ccc(S(N)(=O)=O)cc2)cc1 [celecoxib, reference compound]
increase in body temperature in the LPS-induced sepsis rat model: avoided
